Literature values, collected in US7625587B2, “Hepato phyto-nutraceutical synergistic composition” (priority 2006, dated 2009).
For at least one compound, name, drawing or mass did not settle the structure.

Test system: damage induced—paracetamol, cisplatin and vincristin—cells
Conditions: administration before or after the chemical damage

Compound: COc1cc(C2Oc3cc([C@H]4Oc5cc(O)cc(O)c5C(=O)[C@@H]4O)ccc3OC2CO)ccc1O (stereo partly shown) [silibinin]
- hepatoxic effect in chemically damaged cells: can diminish or prevent the hepatoxic effect
